Our source for the binding values is paper PMC8655160, “Overcome Chemoresistance: Biophysical and Structural Analysis of Synthetic FHIT-Derived Peptides” (Frontiers in Molecular Biosciences, 2021).

The assay has as its target T1, His-tag-ANXA4 (annexin A4) (UniProt P09525).
T1 sequence (chain, in MST only, labelled with His-Tag Labeling Kit RED-tris-NTA (NT647 fluorophore)): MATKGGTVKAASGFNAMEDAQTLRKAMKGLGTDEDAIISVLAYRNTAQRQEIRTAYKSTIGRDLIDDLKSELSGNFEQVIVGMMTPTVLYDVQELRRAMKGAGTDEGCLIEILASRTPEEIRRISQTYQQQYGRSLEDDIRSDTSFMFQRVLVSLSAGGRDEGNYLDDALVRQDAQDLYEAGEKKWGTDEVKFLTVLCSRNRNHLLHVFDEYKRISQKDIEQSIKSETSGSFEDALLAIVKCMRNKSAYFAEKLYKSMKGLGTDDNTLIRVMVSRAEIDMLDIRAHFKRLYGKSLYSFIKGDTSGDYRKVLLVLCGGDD
Put plainly: SPR; Biacore T200; His-tag-ANXA4 captured on anti-histidine antibody coupled to CM5 chip; peptide 0.08-5 uM injected at 25 C, 30 uL/min, 120 s association, 600 s dissociation; HBS-P+ pH 7.4 with 5 mM CaCl2; global 1:1 fit, KD = kd/ka; both purified.

No constants are given. Whether binding was seen depends on the method and setting. Some binding calls cover weakened binding; strength is not graded here. Tags and fused reporters may be left off the sequences shown.

For QHAIKPS (N-terminal acetyl) [peptide 6 (QHAIKPS)], the binding result is “binds”.
Regarding QHLAKPS (N-terminal acetyl) [peptide 5 (QHLAKPS)], the binding entry was “binds”.
